Laboratory results from patent EP4628892A1 (Korea Research Institute of Bioscience and Biotechnology, dated 2025).
These are yes or no findings as the source states them, for the method shown. Some binding calls cover weakened binding; strength is not graded here.

B1: H6HE2L antibody (antibody, human IgG1, kappa, V domains shown)
VH: QMQLVQSGGGLEQPGRSLRLSCVTSGFNFNDYAMHWVRQAPGKGLEWVSGISWNSGAIGYADSVKGRFTVSRDNSKNSLYLQMNSLRAEDTAVYYCARDYNYETSGYYHGFDNWGQGTLVTVSS
VL: DIQMTQSPSSVSASVGDRVTITCRASQGISRWLSWYQQKPGKAPKLLIYAASNLQSGVPLRFSGSGSGTDFTLTINSLQPEDSATYYCQQTNNFPYTFGQGTKVEIKR
notes: Optimized from CSA108
B2: CSA123 antibody (antibody, human IgG1, kappa, V domains shown)
VH: QMQLVQSGAEVKKPGASVKVSCKVSGYTLSELSIHWVRQAPGKGLEWMGGFDPEDDETVYAQKFQGRVTLTDDTSTDTAYMELSSLRSEDTAVYYCARDLGYLTSGNYYDAFDIWGRGTMITVSS
VL: DIQMTQSPSSVSASVGDRVTITCRASQDINRWLAWYQQKPGKAPKLLIYAASRLQSGVPLRFSGSGSGTDFTLTINSLQPEDSATYYCQQTNNFPRTFGQGTRLEIKR
notes: also called anti-NgR1 antibody CSA123
B3: C1HE2E6 antibody (antibody, human IgG1, kappa, V domains shown)
VH: QMQLVQSGGGLEQPGRSLRLSCVTSGFNFNDYAMHWVRQAPGKGLEWVSGISWNSGAIGYADSVKGRFTVSRDNSKNSLYLQMNSLRAEDTAVYYCARDYNYEISGYYYGFDNWGQGTLVTVSS
VL: DIQMTQSPSSVSASVGDRVTITCRASQGISRWLSWYQQKPGKAPKLLIYAASNLQSGVPLRFSGSGFGTDFTLTINSLQPEDSATYYCQQTNNFPYTFGQGTKVEIKR
notes: Optimized from CSA108
B4: S6 antibody (antibody, human IgG1, kappa, V domains shown)
VH: QMQLVQSGAEVKKPGASVKVSCKVSGYTLSGLSIHWVRQAPGKGLEWMGGFDSEDDETVYAQKFQGRVTLTDDTSTDTAYMELSSLRSEDTAVYYCARDLGYLTSGNYYDAFDIWGRGTMITVSS
VL: DIQMTQSPSSVSASVGDRVTITCRASQDINRWLAWYQQKPGKAPKLLIYAASRLQSGVPLRFSGSGSGTDFTLTINSLQPEDSATYYCQQTNNFPRTFGQGTRLEIKR
notes: Optimized from CSA123
B5: G8 antibody (antibody, human IgG1, kappa, V domains shown)
VH: QMQLVQSGAEVKKPGASVKVSCKVSGYPLSELSIHWVRQAPGKGLEWMGGFDSEDDETVYAQKFQGRVTLTDDTSTDTAYMELSSLRSEDTAVYYCARDLGYLTSGNYYDAFGIWGRGTMITVSS
VL: DIQMTQSPSSVSASVGDRVTITCRASQDINRWLAWYQQKPGKAPKLLIYAASRLQSGVPLRFSGSGSGTDFTLTINSLQPEDSATYYCQQTNNFPRTFGQGTRLEIKR
notes: Optimized from CSA123
B6: S3 antibody (antibody, human IgG1, kappa, V domains shown)
VH: QMQLVQSGAEVKKPGASVKVSCKVSGYTLSELSIHWVRQAPGKGLEWMGGFDPEDDETVYAQKFQGRVTLTDDTSTDTAYMELSSLRSEDTAVYYCARDLGYLTSGNYYNAFGIWGRGTMITVSS
VL: DIQMTQSPSSVSASVGDRVTITCRASQDINRWLAWYQQKPGKAPKLLIYAASRLQSGVPLRFSGSGSGTDFTLTINSLQPEDSATYYCQQTNNFPRTFGQGTRLEIKR
notes: Optimized from CSA123
B7: D11 antibody (antibody, human IgG1, kappa, V domains shown)
VH: QMQLVQSGAEVKKPGASVKVSCKVSGYTLSELSIHWVRQAPGKGLEWMGGFDSEDDETVYAQKFQGRVTLTDDTSTDTAYMELSSLRSEDTAVYYCARDLGYLTSGNYYDAFDFWGRGTMITVSS
VL: DIQMTQSPSSVSASVGDRVTITCRASQDINRWLAWYQQKPGKAPKLLIYAASRLQSGVPLRFSGSGSGTDFTLTINSLQPEDSATYYCQQTNNFPRTFGQGTRLEIKR
notes: Optimized from CSA123
B8: CSA108 antibody (antibody, human IgG1, kappa, V domains shown)
VH: QMQLVQSGGGLEQPGRSLRLSCVTSGFNFNDYAMHWVRQAPGKGLEWVSGISWNSGAIGYADSVKGRFTVSRDNSKNSLYLQMNSLRAEDTAVYYCARDYYYETSGYYYGFDNWGQGTLVTVSS
VL: DIQMTQSPSSVSASVGDRVTITCRASQGISRWLAWYQQKPGKAPKLLIYAASNLQSGVPLRFSGSGSGTDFTLTINSLQPEDSATYYCQQTNNFPYTFGQGTKVEIKR
notes: also called anti-NgR1 antibody CSA108

molecular target: T1, NgR1 (antigen immobilized on biochips) (UniProt Q9BZR6); assay: SPR, Biacore 8K; NgR1 immobilized on biochip, antibody flowed at different concentrations
T1 sequence (looked up): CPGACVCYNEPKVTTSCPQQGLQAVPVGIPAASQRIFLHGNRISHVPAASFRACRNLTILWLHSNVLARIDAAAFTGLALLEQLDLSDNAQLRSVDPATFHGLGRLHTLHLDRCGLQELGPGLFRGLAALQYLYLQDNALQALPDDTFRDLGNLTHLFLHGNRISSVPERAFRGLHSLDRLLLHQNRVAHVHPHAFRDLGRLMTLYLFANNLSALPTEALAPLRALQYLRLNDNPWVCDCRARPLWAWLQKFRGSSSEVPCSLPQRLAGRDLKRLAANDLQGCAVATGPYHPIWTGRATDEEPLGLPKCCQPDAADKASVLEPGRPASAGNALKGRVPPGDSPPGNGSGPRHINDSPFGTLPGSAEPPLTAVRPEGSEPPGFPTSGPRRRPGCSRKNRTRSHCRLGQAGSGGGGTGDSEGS

binding, binds:
B1
B2
B3
B4
B5
B6
B7
B8
